Assay results taken from paper PMC9578197.
For at least one entry, the source does not settle the construct or the ends of the probe. For part of these data: No signal at the amounts used counts as a negative.

Columns and labels:
[1] = test system: His-FfMYB15 (Flammulina filiformis); experiment: competition EMSA; conditions: Light Shift Chemiluminescent EMSA kit (Beyotime), pH and temperature not stated, recombinant protein, protein details: His (pCold I)
[2] = test system: His-FfMYB15 (Flammulina filiformis); experiment: EMSA; conditions: Light Shift Chemiluminescent EMSA kit (Beyotime); pH and temperature not stated; recombinant protein; protein details: His (pCold I); label: 3' biotin

## TTGCCACCTCAACTCCTCTAGCTCCAAAAAATCAGTTTCCTATCTCAAGGAAGTTT (double strand) [FfCEL6B mutant probe (CAACCA to AAAAAA), competitor]
[1]; excess mutant competitor vs N1, shift not eliminated
  binding result: no binding

## TTGCCACCTCAACTCCTCTAGCTCCCAACCATCAGTTTCCTATCTCAAGGAAGTTT (double strand) [FfCEL6B promoter probe (56 bp, MYB motif), biotin-labeled]
[2]
  binding result: binds

## TTGCCACCTCAACTCCTCTAGCTCCCAACCATCAGTTTCCTATCTCAAGGAAGTTT (double strand) [FfCEL6B promoter probe, unlabeled competitor]
[1]; excess cold competitor vs N1, shift abolished
  binding result: binds
